Data published in publication doi:10.1101/334433 (bioRxiv, 2018).
Results are given in words; binding and its absence hold for the method and conditions named. Binding seen in cells or lysates may run through a third protein. Some results given as binding are weak or reduced against the parent protein; the word gives no strength. For some assays here: Where a sequence is shown, tags or fusion partners need not be part of it.

How the values were obtained:
[1] = molecular target: T1, GST-Peli1 fusion protein (human) (UniProt Q96FA3); assay: pull-down
T1 sequence: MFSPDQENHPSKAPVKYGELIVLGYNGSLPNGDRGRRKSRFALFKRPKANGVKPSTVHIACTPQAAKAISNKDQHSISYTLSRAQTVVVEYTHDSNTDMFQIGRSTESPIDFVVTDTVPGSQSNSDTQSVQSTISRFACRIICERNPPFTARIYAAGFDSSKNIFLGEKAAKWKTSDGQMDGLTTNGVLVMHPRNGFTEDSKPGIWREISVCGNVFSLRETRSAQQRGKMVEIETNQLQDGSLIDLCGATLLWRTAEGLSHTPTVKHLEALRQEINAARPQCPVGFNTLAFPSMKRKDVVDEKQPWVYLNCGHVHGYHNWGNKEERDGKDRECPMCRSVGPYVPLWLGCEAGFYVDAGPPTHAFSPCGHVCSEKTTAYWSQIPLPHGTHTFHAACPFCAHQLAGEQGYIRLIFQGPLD

[2] = molecular target: T2, endogenous Peli1 (Pellino 1) (human (endogenous in HaCaT)) (UniProt Q96FA3); assay: co-IP
T2 sequence: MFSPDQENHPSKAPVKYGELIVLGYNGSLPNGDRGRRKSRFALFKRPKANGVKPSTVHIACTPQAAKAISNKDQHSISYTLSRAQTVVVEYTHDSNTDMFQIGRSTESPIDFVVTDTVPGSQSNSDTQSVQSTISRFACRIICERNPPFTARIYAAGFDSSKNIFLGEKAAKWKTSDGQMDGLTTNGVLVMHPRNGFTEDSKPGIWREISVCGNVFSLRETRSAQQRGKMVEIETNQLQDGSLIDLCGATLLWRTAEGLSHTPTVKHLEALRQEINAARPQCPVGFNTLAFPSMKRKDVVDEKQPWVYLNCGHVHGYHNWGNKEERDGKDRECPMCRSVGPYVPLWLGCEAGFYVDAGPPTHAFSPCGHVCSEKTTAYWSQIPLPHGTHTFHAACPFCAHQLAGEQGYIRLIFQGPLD

- binding [1]: binds
- binding [2]: binds
B1: endogenous IRF4 (interferon regulatory factor 4) (protein, UniProt Q15306 1-451)
chain: MNLEGGGRGGEFGMSAVSCGNGKLRQWLIDQIDSGKYPGLVWENEEKSIFRIPWKHAGKQDYNREEDAALFKAWALFKGKFREGIDKPDPPTWKTRLRCALNKSNDFEELVERSQLDISDPYKVYRIVPEGAKKGAKQLTLEDPQMSMSHPYTMTTPYPSLPAQQVHNYMMPPLDRSWRDYVPDQPHPEIPYQCPMTFGPRGHHWQGPACENGCQVTGTFYACAPPESQAPGVPTEPSIRSAEALAFSDCRLHICLYYREILVKELTTSSPEGCRISHGHTYDASNLDQVLFPYPEDNGQRKNIEKLLSHLERGVVLWMAPDGLYAKRLCQSRIYWDGPLALCNDRPNKLERDQTCKLFDTQQFLSELQAFAHHGRSLPRFQVTLCFGEEFPDPQRQRKLITAHVEPLLARQLYYFAQQNSGHFLRGYDLPEHISNPEDYHRSIRHSSIQE
